Results reported in patent US11156615B2 (priority 2015, dated 2021).

B1: ttGGBP17C.21: affinity-tuning mutant, 17C background, SEQ ID NO: 79 (protein)
chain: MKQLNIGVAIYKFDDTCMTGVRNAMTAEAQGKAKLNMVDSQNSQPTQNDQVDLFITKKMNALAINPVDRTAAGTIIDKAKQANIPVVFFNREPLPEDMKKWDKVYYVGAKAEQSGILQGQIMADYWKAHPEADKNHDGVMQYVMLMGQPGHQDAILRTQYSIQTVKDAGIKVQELAKDYANWDRVTAHDKMAAWLSSFGDKIEAVFANNDDMALGAIEALKSAGYFTGNKYIPVVGVDATAPGIQAIKDGTLLGTVLADAKNQAKATFNIAYELAQGITPTKDNIGYDITDGKYVWIPYKKITKDNISDAEQGGSHHHHHH
modifications: ttGGBP17C.21 (affinity-tuning mutant, 17C background (Table 6) with signal peptide replaced with M and GGSHHHHHH at C-terminus)
B2: ttGGBP17C.23: affinity-tuning mutant, 17C background, SEQ ID NO: 81 (protein)
chain: B1 chain with A258N, A260Q
modifications: ttGGBP17C.23 (affinity-tuning mutant, 17C background (Table 6) with signal peptide replaced with M and GGSHHHHHH at C-terminus)
B3: ttGGBP17C.27: affinity-tuning mutant, 17C background, SEQ ID NO: 85 (protein)
chain: B1 chain with A258N, A260F
modifications: ttGGBP17C.27 (affinity-tuning mutant, 17C background (Table 6) with signal peptide replaced with M and GGSHHHHHH at C-terminus)

Columns and labels:
[1] = Analysis of emission spectra components: singular value decomposition and Gaussian fits of S1/S2 electronic transitions; details: for Gaussians Fraction f(S1) Sat: glucose-saturated
[2] = Glucose-dependent fluorescence emission intensity spectra of conjugates (Nanodrop3300); type: biochemical; details: Badan conjugate; Nanodrop, room temperature
[3] = Acrylodan conjugate of ttGGBP.17C mutant
[4] = Badan conjugate of ttGGBP.17C mutant

| Molecule | Gaussians Peak S1 [1, 3] [nm] | Gaussians Peak S2 [1, 3] [nm] | Gaussians Fraction f(S1) Apo [1, 3] | Gaussians Peak S1 [1, 4] [nm] | Gaussians Fraction f(S1) Apo [1, 4] | Emission wavelength λ1 (optimal ratiometry wavelength) [2] [nm] | Emission wavelength λ2 (optimal ratiometry wavelength) [2] [nm] | Gaussians Peak S2 [1, 4] [nm] | SVD component fraction C1 [1, 4] | SVD component fraction C2 [1, 4] | Gaussians Fraction f(S1) Sat [1, 4] |
| --- | --- | --- | --- | --- | --- | --- | --- | --- | --- | --- | --- |
| B1 | 526 | 475 | 0.33 | 523 | 1.00 | 532 | 494 | – | – | – | – |
| B2 | 526 | 474 | 0.31 | 532 | 0.95 | 527 | 490 | 475 | 0.97 | 0.03 | 0.85 |
| B3 | 523 | 477 | 0.38 | 529 | 1.00 | 523 | 490 | 487 | 0.96 | 0.04 | 0.82 |

Residue numbers refer to the chain shown, from its start.
